Test: Amino acid selectivity of Rh-PG (LC-MS) and cysteine cross-reactivity
Method: Amino Acid Selectivity of Rh-PG: Various amino acids (100 mM; i.e., citrulline, Arg, Lys, Asp, Glu, Thr, Ser, Tyr, Gln, Asn, Cys, Met, His, cystine, and homocitrulline) were prepared in 50 mM HEPES (250 μL; pH 7.6). To this was added 20% TCA and 0.1 mM Rh-PG and samples were incubated at 37° C. for 30 min. Samples were analyzed by LC-MS (H2O:ACN+0.1% formic acid gradient) and the ratio of unmodified to amino acid modified Rh-PG determined.
Peptide Analysis of Cysteine Cross-Reactivity: To test the hypothesis that the Cys-Rh-PG complex was not stable at neutral pH, a peptide containing both citrulline and Cys (i.e., Ac-AHACitACARA-NH2) was synthesized using standard Fmoc strategies and purified by reverse-phase HPLC. Three aliquots of this peptide (0.5 mM) were prepared in 50 mM HEPES (pH 7.6). Samples were treated as follows; 1. untreated; 2. treated with PG (5 mM) and 20% TCA; and 3. treated with PG (5 mM) and 20% TCA. Samples were incubated at 37° C. for 30 min. Samples 1 and 2 were analyzed directly by MALDI-TOF. Sample 3 was first neutralized to a pH of ˜7.5 using 3 M NaOH, followed by MALDI-TOF analysis.

SMILES | reaction with the Rh-PG probe (selectivity analysis) | amino acids modified by Rh-PG (acidic conditions (20% TCA), 37° C., 30 min, excess amino acid) | selectivity versus Cys (gel-based method with neutralization step prior to gel loading)
NC(=O)[C@H](CCCN=C(N)CCl)NC(=O)c1ccccc1 [Cl-amidine] | does not react with the probe |  | 
CC(C(=O)Nc1cccc(C(=O)C=O)c1)n1cc(CNC(=O)c2ccc3c(c2)C2(OC3=O)c3ccc(N(C)C)cc3Oc3cc(N(C)C)ccc32)nn1 (stereo not drawn) [Rh-PG, N-(3-Glyoxyl)phenylamino)propionyl)-1H-1,2,3-triazol-4-yl)methyl-5(6)-carboxamidotetramethyl rhodamine hydrate] |  | reacted selectively with citrulline, homo-citrulline, and cysteine | ≥ 650 fold

Source: patent publication US9921225B2, “Phenyl glyoxal probes” (The Scripps Research Institute, priority 2012, dated 2018)
